# Experimental data from the supplement of paper PMC10849652.
# Protein sequences, listed by entry. Tags and fused reporters are not part of them. Lines headed by an entry give the natural chain unless they say otherwise; changes in a name come on top.
# UniProt Q15170: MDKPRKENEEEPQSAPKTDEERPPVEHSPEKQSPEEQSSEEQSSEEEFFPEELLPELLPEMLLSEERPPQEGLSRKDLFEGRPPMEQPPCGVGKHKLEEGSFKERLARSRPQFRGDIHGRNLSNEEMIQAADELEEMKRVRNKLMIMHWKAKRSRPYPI
# UniProt O15533, whole entry, looked up: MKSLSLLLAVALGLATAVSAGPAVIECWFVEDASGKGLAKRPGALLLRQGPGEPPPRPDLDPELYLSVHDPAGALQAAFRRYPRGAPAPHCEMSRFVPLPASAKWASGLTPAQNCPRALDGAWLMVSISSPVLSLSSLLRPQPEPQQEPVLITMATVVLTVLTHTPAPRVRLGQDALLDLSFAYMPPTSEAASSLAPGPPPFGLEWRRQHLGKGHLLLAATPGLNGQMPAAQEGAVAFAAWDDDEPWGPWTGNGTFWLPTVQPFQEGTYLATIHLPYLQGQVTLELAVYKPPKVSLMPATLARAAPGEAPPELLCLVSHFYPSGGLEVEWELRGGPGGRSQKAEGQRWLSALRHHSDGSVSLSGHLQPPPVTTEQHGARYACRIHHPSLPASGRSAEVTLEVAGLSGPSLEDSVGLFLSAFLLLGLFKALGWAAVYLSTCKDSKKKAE
# UniProt Q9UGU0: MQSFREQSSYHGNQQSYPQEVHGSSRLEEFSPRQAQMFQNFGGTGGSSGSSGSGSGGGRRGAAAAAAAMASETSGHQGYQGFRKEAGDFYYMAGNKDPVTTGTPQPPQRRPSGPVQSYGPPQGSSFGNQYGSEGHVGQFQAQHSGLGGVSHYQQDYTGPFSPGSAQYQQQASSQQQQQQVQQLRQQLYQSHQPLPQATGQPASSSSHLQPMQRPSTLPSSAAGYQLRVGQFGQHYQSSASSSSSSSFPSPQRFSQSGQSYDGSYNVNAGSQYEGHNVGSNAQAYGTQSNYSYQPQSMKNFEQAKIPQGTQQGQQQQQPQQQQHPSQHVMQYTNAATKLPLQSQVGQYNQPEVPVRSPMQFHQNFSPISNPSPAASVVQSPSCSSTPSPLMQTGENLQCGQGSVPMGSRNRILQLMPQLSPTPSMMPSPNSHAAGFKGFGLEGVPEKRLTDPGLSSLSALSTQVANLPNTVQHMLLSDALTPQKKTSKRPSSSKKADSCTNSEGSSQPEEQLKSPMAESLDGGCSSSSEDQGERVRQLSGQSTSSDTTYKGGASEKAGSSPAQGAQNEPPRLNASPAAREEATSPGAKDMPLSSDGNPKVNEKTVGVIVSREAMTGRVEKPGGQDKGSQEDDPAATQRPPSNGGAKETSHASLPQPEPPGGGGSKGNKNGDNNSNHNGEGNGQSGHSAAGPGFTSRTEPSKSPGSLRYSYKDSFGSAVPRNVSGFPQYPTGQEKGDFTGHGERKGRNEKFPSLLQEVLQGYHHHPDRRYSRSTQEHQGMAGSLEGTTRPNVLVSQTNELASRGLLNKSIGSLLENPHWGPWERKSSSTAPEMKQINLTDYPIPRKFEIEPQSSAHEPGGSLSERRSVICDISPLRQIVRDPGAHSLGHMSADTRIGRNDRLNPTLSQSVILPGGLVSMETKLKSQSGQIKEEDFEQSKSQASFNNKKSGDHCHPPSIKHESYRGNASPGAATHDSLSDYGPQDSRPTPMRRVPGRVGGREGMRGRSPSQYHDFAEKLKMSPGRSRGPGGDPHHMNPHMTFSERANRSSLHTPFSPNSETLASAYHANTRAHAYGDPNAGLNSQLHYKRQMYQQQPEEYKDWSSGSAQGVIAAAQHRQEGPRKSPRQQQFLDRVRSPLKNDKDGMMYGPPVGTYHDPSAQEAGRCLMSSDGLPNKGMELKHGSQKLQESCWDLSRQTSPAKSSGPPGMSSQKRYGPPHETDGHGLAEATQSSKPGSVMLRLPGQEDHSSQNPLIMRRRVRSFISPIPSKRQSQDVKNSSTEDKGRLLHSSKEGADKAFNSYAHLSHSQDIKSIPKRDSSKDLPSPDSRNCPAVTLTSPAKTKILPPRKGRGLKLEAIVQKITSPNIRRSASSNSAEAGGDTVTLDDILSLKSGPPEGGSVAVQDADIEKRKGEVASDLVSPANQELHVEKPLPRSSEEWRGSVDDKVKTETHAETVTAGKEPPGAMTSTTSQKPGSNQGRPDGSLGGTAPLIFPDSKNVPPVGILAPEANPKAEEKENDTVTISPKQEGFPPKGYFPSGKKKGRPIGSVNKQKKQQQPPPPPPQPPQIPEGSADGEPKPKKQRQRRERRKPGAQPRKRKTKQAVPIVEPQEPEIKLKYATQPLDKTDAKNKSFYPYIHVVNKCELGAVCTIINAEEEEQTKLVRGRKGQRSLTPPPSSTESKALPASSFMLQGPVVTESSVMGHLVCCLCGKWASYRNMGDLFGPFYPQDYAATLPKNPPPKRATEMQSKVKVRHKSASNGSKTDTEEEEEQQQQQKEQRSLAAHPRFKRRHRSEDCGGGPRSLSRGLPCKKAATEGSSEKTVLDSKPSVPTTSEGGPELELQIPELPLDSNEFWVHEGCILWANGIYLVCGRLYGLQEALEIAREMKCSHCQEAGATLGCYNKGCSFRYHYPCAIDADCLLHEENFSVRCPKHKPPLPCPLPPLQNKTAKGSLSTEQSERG
# UniProt P42680: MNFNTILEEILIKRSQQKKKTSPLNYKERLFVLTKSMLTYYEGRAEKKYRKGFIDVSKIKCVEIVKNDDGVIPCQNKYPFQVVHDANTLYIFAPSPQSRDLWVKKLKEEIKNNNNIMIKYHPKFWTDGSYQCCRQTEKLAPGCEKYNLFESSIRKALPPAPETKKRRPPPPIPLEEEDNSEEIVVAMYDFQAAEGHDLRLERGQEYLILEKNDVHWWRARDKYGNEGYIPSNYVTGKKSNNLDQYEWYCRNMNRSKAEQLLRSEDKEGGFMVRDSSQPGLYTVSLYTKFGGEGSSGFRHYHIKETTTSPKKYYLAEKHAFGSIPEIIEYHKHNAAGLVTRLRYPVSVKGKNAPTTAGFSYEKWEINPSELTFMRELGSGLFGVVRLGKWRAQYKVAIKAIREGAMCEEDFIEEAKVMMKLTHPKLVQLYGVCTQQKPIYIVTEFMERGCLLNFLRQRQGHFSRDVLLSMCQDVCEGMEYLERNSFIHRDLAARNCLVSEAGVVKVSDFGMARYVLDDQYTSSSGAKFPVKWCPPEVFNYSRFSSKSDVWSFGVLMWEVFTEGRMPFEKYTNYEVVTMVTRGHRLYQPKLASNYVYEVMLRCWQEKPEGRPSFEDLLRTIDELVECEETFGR
# UniProt Q8NDF8: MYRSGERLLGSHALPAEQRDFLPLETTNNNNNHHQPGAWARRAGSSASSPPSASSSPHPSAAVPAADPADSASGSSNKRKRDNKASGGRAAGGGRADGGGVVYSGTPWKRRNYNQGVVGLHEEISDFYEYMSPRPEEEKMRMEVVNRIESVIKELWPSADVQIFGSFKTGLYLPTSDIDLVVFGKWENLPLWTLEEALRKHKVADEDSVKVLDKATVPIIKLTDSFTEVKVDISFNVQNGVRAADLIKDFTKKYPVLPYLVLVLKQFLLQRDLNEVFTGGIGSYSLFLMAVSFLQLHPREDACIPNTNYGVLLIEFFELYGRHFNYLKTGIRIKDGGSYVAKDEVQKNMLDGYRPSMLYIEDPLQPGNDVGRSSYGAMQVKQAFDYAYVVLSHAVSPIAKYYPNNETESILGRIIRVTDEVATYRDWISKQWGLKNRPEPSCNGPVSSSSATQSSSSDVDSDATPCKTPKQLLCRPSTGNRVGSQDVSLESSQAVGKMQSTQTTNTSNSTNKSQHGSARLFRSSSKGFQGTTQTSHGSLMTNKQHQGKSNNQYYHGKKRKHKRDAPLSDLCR
# UniProt Q13428: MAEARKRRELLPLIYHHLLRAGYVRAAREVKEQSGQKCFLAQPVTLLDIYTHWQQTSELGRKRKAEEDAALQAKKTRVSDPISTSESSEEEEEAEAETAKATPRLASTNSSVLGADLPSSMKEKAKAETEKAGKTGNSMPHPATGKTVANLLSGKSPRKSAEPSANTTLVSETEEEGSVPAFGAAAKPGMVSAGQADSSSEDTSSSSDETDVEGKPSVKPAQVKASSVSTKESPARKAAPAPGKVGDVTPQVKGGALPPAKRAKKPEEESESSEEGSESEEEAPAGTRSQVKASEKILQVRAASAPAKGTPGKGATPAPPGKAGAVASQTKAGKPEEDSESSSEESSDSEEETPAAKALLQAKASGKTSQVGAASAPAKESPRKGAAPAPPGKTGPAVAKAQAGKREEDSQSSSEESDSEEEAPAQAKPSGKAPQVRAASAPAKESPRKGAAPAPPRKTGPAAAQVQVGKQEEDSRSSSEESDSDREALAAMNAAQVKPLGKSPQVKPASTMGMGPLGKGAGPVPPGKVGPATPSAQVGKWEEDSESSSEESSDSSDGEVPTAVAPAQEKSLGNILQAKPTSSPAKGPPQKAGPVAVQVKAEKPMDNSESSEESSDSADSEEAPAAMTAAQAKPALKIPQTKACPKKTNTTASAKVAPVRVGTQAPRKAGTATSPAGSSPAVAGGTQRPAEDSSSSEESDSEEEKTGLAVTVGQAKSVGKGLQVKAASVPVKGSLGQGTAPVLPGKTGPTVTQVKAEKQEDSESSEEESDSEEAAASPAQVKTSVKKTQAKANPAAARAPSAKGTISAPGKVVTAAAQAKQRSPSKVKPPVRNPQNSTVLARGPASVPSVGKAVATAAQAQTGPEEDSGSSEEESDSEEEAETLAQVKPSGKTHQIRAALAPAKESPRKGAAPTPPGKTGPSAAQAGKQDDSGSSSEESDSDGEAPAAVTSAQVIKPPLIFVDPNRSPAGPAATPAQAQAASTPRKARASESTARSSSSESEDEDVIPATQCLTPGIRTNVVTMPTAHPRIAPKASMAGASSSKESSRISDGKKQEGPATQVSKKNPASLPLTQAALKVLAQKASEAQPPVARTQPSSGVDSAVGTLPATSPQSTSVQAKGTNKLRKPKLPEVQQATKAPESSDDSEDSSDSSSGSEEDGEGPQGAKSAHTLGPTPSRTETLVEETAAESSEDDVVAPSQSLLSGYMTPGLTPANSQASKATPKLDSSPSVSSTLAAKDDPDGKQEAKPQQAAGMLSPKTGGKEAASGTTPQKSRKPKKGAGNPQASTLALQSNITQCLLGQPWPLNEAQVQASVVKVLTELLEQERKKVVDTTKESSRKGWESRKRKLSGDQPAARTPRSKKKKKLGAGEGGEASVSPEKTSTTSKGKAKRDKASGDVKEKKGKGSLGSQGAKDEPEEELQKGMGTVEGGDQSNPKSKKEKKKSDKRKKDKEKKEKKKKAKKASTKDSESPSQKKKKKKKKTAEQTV
# UniProt P10646, whole entry, looked up: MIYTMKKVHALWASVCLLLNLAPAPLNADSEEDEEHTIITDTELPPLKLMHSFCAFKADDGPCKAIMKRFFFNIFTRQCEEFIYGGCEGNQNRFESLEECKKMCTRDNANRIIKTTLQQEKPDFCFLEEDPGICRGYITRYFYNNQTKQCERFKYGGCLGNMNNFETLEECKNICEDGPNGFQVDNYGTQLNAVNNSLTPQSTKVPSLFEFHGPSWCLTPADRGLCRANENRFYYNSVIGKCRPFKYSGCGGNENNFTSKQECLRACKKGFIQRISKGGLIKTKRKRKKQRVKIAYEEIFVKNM
# UniProt Q5VWP2: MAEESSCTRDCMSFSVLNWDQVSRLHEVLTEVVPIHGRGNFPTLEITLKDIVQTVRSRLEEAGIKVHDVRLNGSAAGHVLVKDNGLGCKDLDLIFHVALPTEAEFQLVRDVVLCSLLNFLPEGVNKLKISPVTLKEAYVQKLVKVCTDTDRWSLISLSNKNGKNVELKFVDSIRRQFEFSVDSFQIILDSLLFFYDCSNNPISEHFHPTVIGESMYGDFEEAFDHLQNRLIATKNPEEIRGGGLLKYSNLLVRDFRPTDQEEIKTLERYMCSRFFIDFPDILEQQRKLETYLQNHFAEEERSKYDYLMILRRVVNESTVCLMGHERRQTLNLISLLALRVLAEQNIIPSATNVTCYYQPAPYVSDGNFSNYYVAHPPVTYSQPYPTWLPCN
# UniProt Q9BT92: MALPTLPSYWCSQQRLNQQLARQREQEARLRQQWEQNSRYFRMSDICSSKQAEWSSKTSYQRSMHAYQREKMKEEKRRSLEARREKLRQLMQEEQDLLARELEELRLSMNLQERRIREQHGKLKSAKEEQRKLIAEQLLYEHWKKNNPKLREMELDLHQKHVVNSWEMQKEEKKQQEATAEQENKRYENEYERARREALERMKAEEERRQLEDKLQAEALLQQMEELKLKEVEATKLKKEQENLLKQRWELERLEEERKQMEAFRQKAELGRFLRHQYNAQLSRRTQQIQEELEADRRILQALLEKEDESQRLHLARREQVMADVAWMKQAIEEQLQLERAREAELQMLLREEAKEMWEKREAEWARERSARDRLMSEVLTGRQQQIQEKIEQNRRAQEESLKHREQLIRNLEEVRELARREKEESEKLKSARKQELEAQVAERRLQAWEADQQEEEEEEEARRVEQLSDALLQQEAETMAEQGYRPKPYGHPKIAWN
# The other results are listed elsewhere or left out.
# Key:
# Assay in all cases: log2 fold change, soluble protein after heating vs DMSO (PISA); higher = thermal stabilisation; K562 lysate, 10 uM; active = over 0.2 and 3.5 SD of the protein, either way, in both replicates (recomputed)
# lapatinib = compound: CS(=O)(=O)CCNCc1ccc(-c2ccc3ncnc(Nc4ccc(OCc5cccc(F)c5)c(Cl)c4)c3c2)o1 [lapatinib]
# Method in brief: (§1)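 K562 pellets were dounce-homogenised in PBS pH 7.4 containing 1 mM MgCl2, and the crude extract, at 1 mg/mL protein, was exposed to 10 μM compound for 30 min. Aliquots were heated for 3 min across 48°C-58°C, pooled, brought to 0.5% NP-40 at 4°C and spun at 21,000xg for 90 min, with the supernatant taken as soluble protein. TMTpro 16plex LC-MS/MS with equalised channel sums quantified that protein. Values are log-two fold changes in thermal stability relative to solvent controls, taken from duplicates.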
# pictilisib = compound: CS(=O)(=O)N1CCN(Cc2cc3nc(-c4cccc5[nH]ncc45)nc(N4CCOCC4)c3s2)CC1 [pictilisib]
# Method in brief: as §1
# bafetinib = compound: Cc1ccc(NC(=O)c2ccc(CN3CC[C@H](N(C)C)C3)c(C(F)(F)F)c2)cc1Nc1nccc(-c2cncnc2)n1 [bafetinib]
# Method in brief: as §1
# [1] = compound: NC(=O)c1cnc(N[C@@H]2CCCC[C@@H]2N)nc1Nc1cccc(-n2nccn2)c1
# Method in brief: as §1
# crizotinib = compound: C[C@@H](Oc1cc(-c2cnn(C3CCNCC3)c2)cnc1N)c1c(Cl)ccc(F)c1Cl [crizotinib]
# Method in brief: as §1
# duvelisib = compound: C[C@H](Nc1ncnc2nc[nH]c12)c1cc2cccc(Cl)c2c(=O)n1-c1ccccc1 [duvelisib]
# Method in brief: as §1
# tozasertib = compound: Cc1cc(Nc2cc(N3CCN(C)CC3)nc(Sc3ccc(NC(=O)C4CC4)cc3)n2)n[nH]1 [tozasertib]
# Method in brief: as §1
# doramapimod = compound: Cc1ccc(-n2nc(C(C)(C)C)cc2NC(=O)Nc2ccc(OCCN3CCOCC3)c3ccccc23)cc1 [doramapimod]
# Method in brief: as §1
# dasatinib = compound: Cc1nc(Nc2ncc(C(=O)Nc3c(C)cccc3Cl)s2)cc(N2CCN(CCO)CC2)n1 [dasatinib]
# Method in brief: as §1
# [2] = compound: Cn1cc(-c2ccc3c(c2)CCN3C(=O)Cc2cccc(C(F)(F)F)c2)c2c(N)ncnc21
# Method in brief: as §1
# quisinostat = compound: Cn1cc(CNCC2CCN(c3ncc(C(=O)NO)cn3)CC2)c2ccccc21 [quisinostat]
# Method in brief: as §1
# [3] = compound: NC(=O)Nc1cc(-c2cccc(F)c2)sc1C(=O)N[C@H]1CCCNC1
# Method in brief: as §1
# [4] = compound: NC1(c2ccc(-c3nc4ccn5c(=O)[nH]nc5c4cc3-c3ccccc3)cc2)CCC1
# Method in brief: as §1
# [5] = compound: C[C@H](C1=CC=C(C=C1)C(=O)NC2=C3C=CNC3=NC=C2)N
# Method in brief: as §1
# gandotinib = compound: Cc1cc(Nc2cc(CN3CCOCC3)c3nc(C)c(Cc4ccc(Cl)cc4F)n3n2)n[nH]1 [gandotinib]
# Method in brief: as §1
# [6] = compound: Cc1cccc(CC(=O)N2CCc3c2ccc(-c2cn(C)c4ncnc(N)c24)c3F)n1
# Method in brief: as §1
# nilotinib = compound: Cc1cn(-c2cc(NC(=O)c3ccc(C)c(Nc4nccc(-c5cccnc5)n4)c3)cc(C(F)(F)F)c2)cn1 [nilotinib]
# Method in brief: as §1
# [7] = compound: Cc1nc(Nc2n[nH]c3c2CN(C(=O)N[C@H](CN(C)C)c2ccccc2)C3(C)C)c2sccc2n1
# Method in brief: as §1
# [8] = compound: Cc1ncc(-c2ccnc(Nc3ccc(S(C)(=O)=O)cc3)n2)n1C(C)C
# Method in brief: as §1
# tipifarnib = compound: Cn1cncc1[C@@](N)(c1ccc(Cl)cc1)c1ccc2c(c1)c(-c1cccc(Cl)c1)cc(=O)n2C [tipifarnib]
# Method in brief: as §1
Target,log2 fold change (lapatinib),log2 fold change (pictilisib),log2 fold change (bafetinib),log2 fold change [1],log2 fold change (crizotinib),log2 fold change (duvelisib),log2 fold change (tozasertib),log2 fold change (doramapimod),log2 fold change (dasatinib),log2 fold change [2],log2 fold change (quisinostat),log2 fold change [3],log2 fold change [4],log2 fold change [5],log2 fold change (gandotinib),log2 fold change [6],log2 fold change (nilotinib),log2 fold change [7],log2 fold change [8],log2 fold change (tipifarnib)
TCEAL1 isoform 2 (UniProt Q15170),inactive: -0.127,inactive: -0.073,inactive: -0.021,inactive: -0.015,,,,,,,,,,,,,,,,
TAPBP isoform 3 (UniProt O15533),,inactive: 0.013,inactive: -0.193,,inactive: -0.086,inactive: 0.031,inactive: -0.052,inactive: -0.04,inactive: 0.186,inactive: -0.048,inactive: 0.045,inactive: 0.042,inactive: -0.132,,,,,,,
TCF20 (UniProt Q9UGU0),inactive: -0.049,inactive: -0.034,inactive: -0.001,inactive: 0.11,inactive: 0.019,inactive: 0.094,,inactive: -0.032,inactive: 0.001,inactive: -0.057,inactive: 0.193,inactive: -0.006,inactive: 0.068,inactive: 0.011,inactive: 0.108,inactive: -0.005,,,,
TEC (UniProt P42680),inactive: 0.007,,,inactive: -0.039,,,inactive: -0.198,,,,,,,,,,inactive: -0.047,inactive: 0.099,inactive: 0.019,inactive: 0.116
TENT4B isoform 5 (UniProt Q8NDF8),,inactive: 0.03,inactive: 0.128,,inactive: 0.007,,,inactive: -0.053,,,inactive: -0.034,inactive: 0.093,inactive: -0.069,,,,inactive: 0.181,inactive: -0.203,inactive: 0.115,inactive: 0.206
TCOF1 isoform 6 (UniProt Q13428),inactive: -0.007,,,inactive: -0.06,inactive: 0.008,inactive: -0.038,,inactive: -0.096,inactive: 0.134,inactive: -0.025,inactive: 0.022,inactive: 0.005,inactive: 0.1,,,,inactive: -0.03,inactive: 0.167,inactive: 0.066,inactive: 0.077
TFPI (UniProt P10646),inactive: -0.035,inactive: 0.009,inactive: 0.149,inactive: 0.035,inactive: 0.036,,inactive: -0.01,inactive: 0.082,,,inactive: -0.088,inactive: -0.067,inactive: 0.02,active: 0.625,inactive: -0.202,inactive: -0.301,inactive: -0.076,inactive: 0.04,inactive: -0.035,inactive: -0.025
TENT5C (UniProt Q5VWP2),inactive: 0.094,inactive: 0.03,inactive: -0.027,inactive: 0.037,inactive: -0.091,,inactive: 0.017,inactive: 0.098,,,inactive: -0.144,inactive: 0.058,inactive: -0.012,inactive: 0.113,inactive: -0.02,inactive: -0.135,inactive: 0.005,inactive: 0.051,inactive: -0.048,inactive: 0.048
TEDC1 (UniProt Q86SX3),inactive: -0.064,,,inactive: 0.104,inactive: -0.078,inactive: 0.159,inactive: -0.103,inactive: 0.009,inactive: 0.087,inactive: 0.05,inactive: 0.161,inactive: -0.074,inactive: -0.022,,,,inactive: 0.015,inactive: -0.016,inactive: -0.038,inactive: -0.049
TECPR1 isoform 4 (UniProt Q7Z6L1),inactive: -0.012,inactive: -0.56,inactive: -0.15,inactive: 0.174,,inactive: 0.007,,,inactive: -0.145,inactive: 0.045,,,inactive: -0.048,inactive: -0.161,inactive: 0.058,inactive: 0.097,,,,
TAZ (UniProt Q16635),inactive: -0.01,,,inactive: 0.023,inactive: 0.065,,,inactive: -0.09,,,inactive: 0.105,inactive: 0.157,inactive: -0.146,inactive: -0.448,inactive: 0.294,inactive: 0.026,,,,
TCHP (UniProt Q9BT92),,inactive: -0.031,inactive: 0.118,,inactive: 0.059,inactive: -0.021,inactive: 0.02,inactive: 0.056,inactive: 0.01,inactive: 0.198,inactive: -0.15,inactive: 0.058,inactive: 0.073,inactive: -0.101,inactive: -0.028,inactive: -0.038,inactive: 0.097,inactive: -0.002,inactive: 0.03,inactive: 0.111

# Some values from the list:
# For log2 fold change (lapatinib), TAZ (UniProt Q16635) reads inactive: -0.01
# For log2 fold change [3], TCF20 (UniProt Q9UGU0) reads inactive: -0.006
